System: E. coli Lgt-biotin
Experiment: Macrocyclic peptide library affinity selection (mRNA display) with NGS
Format: binding
Settings: after five rounds of enrichment plus two off-rate rounds; 0.02% DDM, 250 nM biotinylated Lgt

Substance: ClAcf-Arg-Gly-Bph-MeF-Bph-Ser-Arg-Cys-Gly-NH2 (sidechain bridge or staple) [compound 692, original hit macrocycle identified in the library screen]
- fraction of peptide sequences in final round of selection by NGS: 19.4%

Substance: ClAcf-Asp-Gly-Bph-MeF-Bph-Ser-Arg-Cys-Gly-NH2 (sidechain bridge or staple) [compound 693, original hit macrocycle identified in the library screen]
- fraction of peptide sequences in final round of selection by NGS: 10.1%
